Results are given in words; binding and its absence hold for the method and conditions named. In cells and extracts the contact can be indirect. Some results given as binding are weak or reduced against the parent protein; the word gives no strength.
What was measured:
[1] = target: Flag-NEMO (murine) (UniProt O88522); assay: refers to the pull-down of Example 3
[2] = target: Flag-NEMO (murine) (UniProt O88522); assay: cells treated with labelled peptide, anti-Flag pull-down of Flag-NEMO, Bodipy fluorescence on beads
[3] = target: Flag-NEMO (murine) (UniProt O88522); assay: cells treated with 20 µM labelled peptide, anti-Flag pull-down of Flag-NEMO, Bodipy fluorescence on beads

Protein sequences, listed by entry. Tags and fused reporters are not part of them. Lines headed by an entry give the natural chain unless they say otherwise; changes in a name come on top.
UniProt O88522: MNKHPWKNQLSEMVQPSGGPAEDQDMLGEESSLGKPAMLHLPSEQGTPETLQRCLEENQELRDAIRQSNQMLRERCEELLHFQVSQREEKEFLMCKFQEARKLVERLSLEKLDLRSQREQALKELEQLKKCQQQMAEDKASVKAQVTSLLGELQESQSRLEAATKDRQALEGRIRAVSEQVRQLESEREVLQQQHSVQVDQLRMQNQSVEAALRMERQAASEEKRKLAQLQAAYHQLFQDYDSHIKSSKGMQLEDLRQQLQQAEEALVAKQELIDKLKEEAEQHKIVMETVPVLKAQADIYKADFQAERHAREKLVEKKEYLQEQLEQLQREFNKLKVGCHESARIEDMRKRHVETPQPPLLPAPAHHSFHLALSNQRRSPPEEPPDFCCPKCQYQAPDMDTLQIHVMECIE

Measured: binding

B1: BA-DR NLM (peptide)
peptide: CRQIKIWFQNRRMKWKKLKAQADIYKARFQAERHAREK
modifications: Bodipy on the N-terminal cysteine (maleimide coupling)
binds: all assays above

Reference: patent US20100240040A1, “METHOD FOR SCREENING FOR SELECTIVE MODULATOR OF THE NF-KB PATHWAY ACTIVATION” (INSTITUT PASTEUR, priority 2007, published 2010)
